Measured values reported in patent US20070111265A1, “Ligands for mineralocorticoid receptor (MR) and methods for screening for or designing MR ligands” (Van Andel Research Institute, priority 2005, published 2007).
Results are given in words; binding and its absence hold for the method and conditions named. Some binding calls cover weakened binding; strength is not graded here.

molecular target: human MR LBD (residues 727-984) containing a C808S mutation, 6xHis-GST fusion protein (human) (UniProt P08235); experiment: AlphaScreen, biotinylated peptide and 6xHis-GST MR LBD/corticosterone

| Binder | binding |
| --- | --- |
| QEPVSPKKKENALLRYLLDKDDTKD (biotinylated (site not stated)) [biotinylated SRC2-3 (TIF2) peptide] | binds |
| SPSSHSSLTERHKILHRLLQEGSP (biotinylated (site not stated)) [biotinylated SRC1-2 peptide] | binds |
| QKPTSGPQTPQAQQKSLLQQLLTE (biotinylated (site not stated)) [biotinylated SRC1-4 peptide] | binds |
| AEEPSLLKKLLLAPA (biotinylated (site not stated)) [biotinylated PGC1α-1 peptide] | binds |
| SGNLVPDAASKHKQLSELLRGGSG (biotinylated (site not stated)) [biotinylated CBP-1 peptide] | binds |
| GHGEDFSKVSQNPILTSLLQITGN (biotinylated (site not stated)) [biotinylated TRAP peptide] | binds |
| PCQGSASHPTILYTLLSPGP (biotinylated (site not stated)) [biotinylated SHP-1 peptide] | binds |
| VAEAPVPSILKKILLEEPNS (biotinylated (site not stated)) [biotinylated SHP-2 peptide] | binds |

molecular target: MR LBD (C808S) with E962R first charge clamp (AF-2 helix) mutation, 6xHis-GST fusion protein (human) (UniProt P08235); experiment: AlphaScreen, purified MR LBD (C808S) mutant, 100 nM corticosterone

| Binder | binding |
| --- | --- |
| QEPVSPKKKENALLRYLLDKDDTKD (biotinylated (site not stated)) [biotinylated SRC2-3 (TIF2) peptide] | binds |
| QKPTSGPQTPQAQQKSLLQQLLTE (biotinylated (site not stated)) [biotinylated SRC1-4 peptide] | binds |

molecular target: MR LBD (C808S) with E796R second charge clamp mutation, 6xHis-GST fusion protein (human) (UniProt P08235); experiment: as above

| Binder | binding |
| --- | --- |
| QKPTSGPQTPQAQQKSLLQQLLTE (biotinylated (site not stated)) [biotinylated SRC1-4 peptide] | binds |

molecular target: human MR LBD (residues 727-984) containing a C808S mutation, 6xHis-GST fusion protein (human) (UniProt P08235); experiment: AlphaScreen peptide profiling (corticosterone- and aldosterone-bound MR LBD)

| Binder | binding |
| --- | --- |
| PRQGSILYSLLTSSK [unlabeled DAX1-3 peptide] | binds |
| AQQKSLLQQLLTE [unlabeled SRC1-4 peptide …] | binds |
| AEEPSLLKKLLLAPA [unlabeled PGC1α-1 peptide] | binds |
| WAEFSILRELLAQDV [unlabeled PGC1β-2 peptide] | binds |

molecular target: human MR LBD (residues 727-984) containing a C808S mutation, 6xHis-GST fusion protein (human) (UniProt P08235); experiment: AlphaScreen competition (FIGS. 1C and 3D)

| Binder | binding |
| --- | --- |
| AQQKSLLQQLLTE [unlabeled SRC1-4 peptide …] | binds |

molecular target: human MR LBD (residues 727-984) containing a C808S mutation, 6xHis-GST fusion protein (human) (UniProt P08235); experiment: AlphaScreen peptide profiling (FIG. 1C)

| Binder | binding |
| --- | --- |
| AQQKSLLQQLLTE [unlabeled SRC1-4 peptide …] | binds |
| AEEPSLLKKLLLAPA [unlabeled PGC1α-1 peptide] | binds |
| WAEFSILRELLAQDV [unlabeled PGC1β-2 peptide] | binds |
| RRPCSELLKYLTTND [unlabeled PGC1α-2 peptide] | binds |
| VDELSLLQKLLLATS [unlabeled PGC1β-1 peptide] | binds |

molecular target: human MR LBD (residues 727-984) containing a C808S mutation, 6xHis-GST fusion protein (human) (UniProt P08235); experiment: AlphaScreen competition, 500 nM unlabeled peptide against the SRC2-3 motif

| Binder | binding |
| --- | --- |
| PRQGSILYSLLTSSK [unlabeled DAX1-3 peptide] | binds |
| AQQKSLLQQLLTE [unlabeled SRC1-4 peptide …] | binds |
| AEEPSLLKKLLLAPA [unlabeled PGC1α-1 peptide] | binds |
| WAEFSILRELLAQDV [unlabeled PGC1β-2 peptide] | binds |
